Results are given in words; binding and its absence hold for the method and conditions named. Some results given as binding are weak or reduced against the parent protein; the word gives no strength.
Columns and labels:
[1] = molecular target: T1, recombinant human CTRP6 (C1q/TNF-related protein 6), Aviscera Bioscience (human) (UniProt Q9BXI9); experiment: SPR; rhCTRP6 immobilised on a CM5 chip by amine coupling (about 100 RU); analyte C3(H2O) 0-500 nM or factor H; BIAcore 2000; 10 mM HEPES pH 7.4, 150 mM NaCl, 3 mM EDTA, 0.005% surfactant P20; 20 μl/min; both purified
T1 sequence: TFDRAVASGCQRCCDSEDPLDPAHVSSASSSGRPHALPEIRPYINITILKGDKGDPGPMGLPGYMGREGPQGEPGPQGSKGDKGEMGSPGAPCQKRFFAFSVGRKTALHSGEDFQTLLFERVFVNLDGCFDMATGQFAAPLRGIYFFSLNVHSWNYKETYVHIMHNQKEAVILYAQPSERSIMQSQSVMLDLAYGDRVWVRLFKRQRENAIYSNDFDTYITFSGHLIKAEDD

Protein sequences, listed by entry. Tags and fused reporters are not part of them. Residues count along the entry.
UniProt P08603, residues 19-1231: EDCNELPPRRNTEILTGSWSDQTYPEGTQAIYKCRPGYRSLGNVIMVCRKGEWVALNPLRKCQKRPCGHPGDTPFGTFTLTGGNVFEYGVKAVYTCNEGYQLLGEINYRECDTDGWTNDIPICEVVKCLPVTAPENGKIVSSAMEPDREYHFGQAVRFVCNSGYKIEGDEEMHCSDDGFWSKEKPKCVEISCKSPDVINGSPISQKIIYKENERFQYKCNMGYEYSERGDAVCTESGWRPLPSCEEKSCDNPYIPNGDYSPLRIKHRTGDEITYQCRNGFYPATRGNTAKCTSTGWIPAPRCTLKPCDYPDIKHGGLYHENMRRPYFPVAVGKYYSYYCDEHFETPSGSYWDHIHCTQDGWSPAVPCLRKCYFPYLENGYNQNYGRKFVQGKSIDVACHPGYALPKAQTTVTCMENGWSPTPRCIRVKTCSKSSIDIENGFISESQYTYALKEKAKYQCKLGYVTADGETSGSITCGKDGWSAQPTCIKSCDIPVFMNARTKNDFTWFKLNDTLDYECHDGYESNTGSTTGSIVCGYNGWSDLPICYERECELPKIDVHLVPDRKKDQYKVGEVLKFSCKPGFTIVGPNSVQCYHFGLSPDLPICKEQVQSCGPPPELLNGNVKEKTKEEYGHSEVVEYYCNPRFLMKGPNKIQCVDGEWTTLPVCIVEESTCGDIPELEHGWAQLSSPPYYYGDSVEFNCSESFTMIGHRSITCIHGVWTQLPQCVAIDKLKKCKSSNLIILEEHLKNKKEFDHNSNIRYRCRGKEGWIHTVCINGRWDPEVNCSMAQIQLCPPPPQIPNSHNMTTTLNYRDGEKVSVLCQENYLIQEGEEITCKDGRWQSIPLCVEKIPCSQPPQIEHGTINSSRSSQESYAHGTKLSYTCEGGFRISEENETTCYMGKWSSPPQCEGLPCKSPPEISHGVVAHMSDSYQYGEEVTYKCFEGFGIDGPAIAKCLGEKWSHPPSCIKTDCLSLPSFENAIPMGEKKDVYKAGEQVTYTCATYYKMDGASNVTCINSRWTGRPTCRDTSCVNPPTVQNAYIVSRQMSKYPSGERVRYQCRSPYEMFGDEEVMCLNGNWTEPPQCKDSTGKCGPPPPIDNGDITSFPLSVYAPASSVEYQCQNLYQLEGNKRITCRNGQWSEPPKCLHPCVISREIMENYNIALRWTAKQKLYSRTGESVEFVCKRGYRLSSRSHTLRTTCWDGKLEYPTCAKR

[2] = molecular target: mouse CTRP6 in serum (mouse (endogenous in C57BL/6 serum)) (UniProt Q6IR41); experiment: SEC; 100 μl C57BL/6 mouse serum on 16/60 Sephacryl S-300 in PBS, 0.5 ml/min; CTRP6 in fractions by ELISA
[3] = molecular target: T1, recombinant human CTRP6 (C1q/TNF-related protein 6), Aviscera Bioscience (human); experiment: SEC; 1 μg/100 μl rhCTRP6 on 16/60 Sephacryl S-300 in PBS, 0.5 ml/min; both purified

## human factor H (from UniProt P08603 19-1231)
[1]
  binding: no binding

B1: mouse CTRP6 in serum (protein, UniProt Q6IR41 25-264)
chain: VPTEETTFGESVASHLPKGCRRCCDPEDLMSSDDTVQAPVSPYVLPEVRPYINITILKGDKGDRGPTGTPGKPGKNGTRGDRGSQGVKGDKGQAGSPGSSCQTHYSAFSVGRKTGLHSSENFLSLLFDRVFVNTDGHFDMATGSFVAPLRGLYFFSLNVHSWNYKETYVHIVHNEQAVVILYAQPSERSIMQSQSVMLPLVPGDRVWVRLFKRERENGIYSDDVDTYITFSGHLIKAEDN
[2]
  binding: binds

B2: recombinant human CTRP6 (C1q/TNF-related protein 6), Aviscera Bioscience (protein, UniProt Q9BXI9 47-278)
chain: TFDRAVASGCQRCCDSEDPLDPAHVSSASSSGRPHALPEIRPYINITILKGDKGDPGPMGLPGYMGREGPQGEPGPQGSKGDKGEMGSPGAPCQKRFFAFSVGRKTALHSGEDFQTLLFERVFVNLDGCFDMATGQFAAPLRGIYFFSLNVHSWNYKETYVHIMHNQKEAVILYAQPSERSIMQSQSVMLDLAYGDRVWVRLFKRQRENAIYSNDFDTYITFSGHLIKAEDD
[3]
  binding: no binding
